In publication PMC7864192 (Cancers, 2021) one finds IC50 data, which are given here for one compound.

Where two headings read alike, the source gives them in different places.

Common to all, as to conditions: Homo sapiens, read-out: IC50 in monotherapy
The subject of assay [1] is KGN cells (AGCT cell line). Briefly: Cell viability drug screen (Cell Titer Glo 2.0, 72 h), mono- and combination therapy, KGN. (In general: Cellular ATP, detected with luciferase, serves as a proxy for viable cell number.)
Assay [2] relates to GCPA007 T2.I patient-derived AGCT cell line. The experiment in a line: Cell viability drug screen (Cell Titer Glo 2.0, 72 h), mono- and combination therapy, GCPA007T2.I.
The subject of assay [3] is GCPA096 T1.I patient-derived AGCT cell line. Briefly: Cell viability drug screen (Cell Titer Glo 2.0, 72 h), mono- and combination therapy, GCPA096T1.I.
For assay [4], the system named is GCPA096 T1.V patient-derived AGCT cell line. Briefly: Cell viability drug screen (Cell Titer Glo 2.0, 72 h), mono- and combination therapy, GCPA096T1.V.
Assay [5] has as its system GCPA113 T1.I patient-derived AGCT cell line. Briefly: Cell viability drug screen (Cell Titer Glo 2.0, 72 h), mono- and combination therapy, GCPA113T1.I.
The test system of assay [6] is GCPA007 T2.IV patient-derived AGCT cell line. The experiment in a line: Cell viability drug screen (Cell Titer Glo 2.0, 72 h), mono- and combination therapy, GCPA007T2.IV.
The subject of assay [7] is GCPA096 T1.II patient-derived AGCT cell line. The experiment in a line: Cell viability drug screen (Cell Titer Glo 2.0, 72 h), mono- and combination therapy, GCPA096T1.II.
The subject of assay [8] is GCPA096 T1.XV patient-derived AGCT cell line. Briefly: Cell viability drug screen (Cell Titer Glo 2.0, 72 h), mono- and combination therapy, GCPA096T1.XV.
The test system of assay [9] is GCPA108 T3.IV patient-derived AGCT cell line. The experiment in a line: Cell viability drug screen (Cell Titer Glo 2.0, 72 h), mono- and combination therapy, GCPA108T3.IV.
Assay [10] deals with GCPA113 T1.II patient-derived AGCT cell line. Briefly: Cell viability drug screen (Cell Titer Glo 2.0, 72 h), mono- and combination therapy, GCPA113T1.II.
Assay [11] concerns GCPA113 T1.III patient-derived AGCT cell line. The experiment in a line: Cell viability drug screen (Cell Titer Glo 2.0, 72 h), mono- and combination therapy, GCPA113T1.III.

For the compound `CC/C(=C(\c1ccccc1)c1ccc(OCCN(C)C)cc1)c1ccccc1` [Tamoxifen], the IC50 (commonly the midpoint of a concentration-inhibition curve) in assay [1] (72 h) is 8.49 µM; in [1], 8.49 µM; in [2], 9.29 µM; in assay [3], more than 20 µM; in assay [4], 10.5 µM; in assay [5] (72 h), 14.1 µM. The IC50 in assay [5] was found to be 14.1 µM; in assay [6] (72 h), 9.15 µM; in assay [6], 9.15 µM; in [7], 15.8 µM; in [8] it was 16.6 µM; in assay [9] (72 h), 7.62 µM. Also, the IC50 in assay [9] was 7.62 µM; in [10] (72 h), more than 20 µM; in [10] it was more than 20 µM; in [11] (72 h) it was 11.5 µM; in assay [11], 11.5 µM.
